Experimental data: patent US20240166598A1, “COMPOUNDS, COMPOSITIONS, AND METHODS OF USING THE SAME” (priority 2021, published 2024)

Assay: in vitro
Conditions: human, Caco-2

SMILES: C[C@H]1O[C@@H](O[C@H]2[C@@H](O)C[C@H](O[C@H]3[C@@H](O)C[C@H](O[C@H]4CC[C@@]5(C)[C@H](CC[C@@H]6[C@@H]5C[C@@H](O)[C@]5(C)[C@@H](C7=CC(=O)OC7)CC[C@]65O)C4)O[C@@H]3C)O[C@@H]2C)C[C@H](O)[C@@H]1O [Digoxin]
- efflux ratio: 26.3
